From patent publication US10633542B2, “Azacyanine dyes and use thereof” (Ecole Polytechnique Fédérale de Lausanne (EPFL), priority 2018, dated 2020)

Test system: A431 cells
Assay: Cell uptake in live cells
Type: cell-based
Details: 5 μM solution of dye in PBS, well F12, imaging check
Experimental: Therefore, we performed such experiments in live cells with Compound VIII compound. […] The following procedure was used:
Cells were grown in 96 well plates to confluent level. Media was removed, cells washed with PBS, incubated for a set time (5, 15, or 30 minutes) at varying concentrations of the dye (5 μM, 10 μM, and 25 μM) in PBS. Dye was removed, cells washed twice with PBS, then PBS added for imaging.
The values for each well were consistent with that of the control group of wells that were not exposed to the dye in wells A1-A3. The bright well at F12 is a solution of Compound VIII at 5 μM in PBS to insure imaging of the dye is occurring.

CN1C=CC=C2C1=N/C(=C\C=C1/C[N+](C)(C)CC(/C=C/C3=Nc4c(ccc[n+]4C)C3(C)C)=C1Cl)C2(C)C.I [Compound VIII]
Avg Radiant Efficiency: 3.33E+07 [p/s/cm^2/sr]/[μW/cm^2]
